We go through four molecules from paper PMC4071844.

For assay [1], the target named is T1, MYB82 (Arabidopsis) (UniProt Q9LTF7).
T1 sequence: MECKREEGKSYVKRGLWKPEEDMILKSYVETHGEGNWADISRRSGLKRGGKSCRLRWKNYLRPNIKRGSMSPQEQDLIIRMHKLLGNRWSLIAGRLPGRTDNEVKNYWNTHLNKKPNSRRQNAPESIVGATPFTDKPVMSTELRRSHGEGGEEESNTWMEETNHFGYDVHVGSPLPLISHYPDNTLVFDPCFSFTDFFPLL
The experiment in a line: two-hybrid; MYB82 and its fragments fused to the BD of pGBKT7, GL3 fused to the AD of pGADT7; growth on synthetic dropout medium lacking Leu/Trp/His/Ade and containing 5mM 3AT.

In assay [2] the target is T2, MYB82-nYFP (Arabidopsis) (UniProt Q9LTF7).
T2 sequence: T1 sequence
The assay can be described thus: split reporter; BiFC: nYFP and cYFP fusions transiently coexpressed in N. benthamiana leaves by Agrobacterium infiltration, 24 °C for 48h before observation.

For assay [3], the target named is T3, GL1 (Arabidopsis) (UniProt P27900).
T3 sequence: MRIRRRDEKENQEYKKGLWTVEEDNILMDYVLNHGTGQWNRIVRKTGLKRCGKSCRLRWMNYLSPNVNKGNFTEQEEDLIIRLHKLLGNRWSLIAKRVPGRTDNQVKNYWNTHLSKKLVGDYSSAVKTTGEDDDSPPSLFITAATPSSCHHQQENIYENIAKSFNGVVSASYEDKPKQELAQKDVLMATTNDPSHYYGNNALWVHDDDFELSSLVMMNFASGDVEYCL
The experiment in a line: two-hybrid; dimer tests of MYB82 and GL1, full length and fragments, in pGBKT7 or pGADT7 (which in which is not told); growth on synthetic dropout medium lacking Leu/Trp/His/Ade and containing 5mM 3AT.

In assay [4] the target is T1, MYB82 (Arabidopsis). The description is as above.

No constants are given. Whether binding was seen depends on the method and setting. For some assays here: In cells and extracts the contact can be indirect. Some entries that bind do so weakly or less than the wild type. For some assays here: Tags and fused reporters may be left off the sequences shown.

B1: GLABRA3 (GL3) (protein, UniProt Q9FN69 1-637)
chain: MATGQNRTTVPENLKKHLAVSVRNIQWSYGIFWSVSASQSGVLEWGDGYYNGDIKTRKTIQASEIKADQLGLRRSEQLSELYESLSVAESSSSGVAAGSQVTRRASAAALSPEDLADTEWYYLVCMSFVFNIGEGMPGRTFANGEPIWLCNAHTADSKVFSRSLLAKSAAVKTVVCFPFLGGVVEIGTTEHITEDMNVIQCVKTSFLEAPDPYATILPARSDYHIDNVLDPQQILGDEIYAPMFSTEPFPTASPSRTTNGFDQEHEQVADDHDSFMTERITGGASQVQSWQLMDDELSNCVHQSLNSSDCVSQTFVEGAAGRVAYGARKSRVQRLGQIQEQQRNVKTLSFDPRNDDVHYQSVISTIFKTNHQLILGPQFRNCDKQSSFTRWKKSSSSSSGTATVTAPSQGMLKKIIFDVPRVHQKEKLMLDSPEARDETGNHAVLEKKRREKLNERFMTLRKIIPSINKIDKVSILDDTIEYLQELERRVQELESCRESTDTETRGTMTMKRKKPCDAGERTSANCANNETGNGKKVSVNNVGEAEPADTGFTGLTDNLRIGSFGNEVVIELRCAWREGVLLEIMDVISDLHLDSHSVQSSTGDGLLCLTVNCKHKGSKIATPGMIKEALQRVAWIC
For the molecule B1, the binding result in assay [1] is given as “binds”.

B2: GL3-cYFP (protein, UniProt Q9FN69 1-637)
chain: B1 chain
As to B2, the binding result in assay [2] is given as “binds”.

B3: GL1 (protein, UniProt P27900 1-228)
chain: T3 sequence
For B3, the binding entry in assay [3] is on record as “binds”.

B4: MYB82 (protein, UniProt Q9LTF7 1-201)
chain: T1 sequence
With B4, the binding result in assay [4] and in assay [3] was “binds” each time.
